For 28 targets, log2 fold change results are on record in the supplement of paper PMC12819154, “High-throughput peptide-centric local stability assay extends protein–ligand identification to membrane proteins, tissues and bacteria” (Nature Structural & Molecular Biology, 2025).

Amino acid sequences for entries named in this document (tags omitted). A change or cut given only in a name is not applied to a line headed by its entry.
UniProt O60832: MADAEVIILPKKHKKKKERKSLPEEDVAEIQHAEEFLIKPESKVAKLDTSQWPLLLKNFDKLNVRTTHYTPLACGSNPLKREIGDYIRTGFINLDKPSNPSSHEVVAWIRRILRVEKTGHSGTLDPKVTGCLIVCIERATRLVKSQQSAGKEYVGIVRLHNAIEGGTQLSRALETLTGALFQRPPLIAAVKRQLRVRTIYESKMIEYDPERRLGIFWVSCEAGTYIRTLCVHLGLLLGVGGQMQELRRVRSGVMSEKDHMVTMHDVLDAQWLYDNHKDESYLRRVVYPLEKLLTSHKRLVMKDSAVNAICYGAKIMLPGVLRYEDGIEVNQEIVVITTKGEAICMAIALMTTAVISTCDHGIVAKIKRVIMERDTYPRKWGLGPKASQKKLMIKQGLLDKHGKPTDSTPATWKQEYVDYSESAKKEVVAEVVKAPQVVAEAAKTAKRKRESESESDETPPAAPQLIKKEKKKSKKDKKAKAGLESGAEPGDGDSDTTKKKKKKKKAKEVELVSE
UniProt O60499: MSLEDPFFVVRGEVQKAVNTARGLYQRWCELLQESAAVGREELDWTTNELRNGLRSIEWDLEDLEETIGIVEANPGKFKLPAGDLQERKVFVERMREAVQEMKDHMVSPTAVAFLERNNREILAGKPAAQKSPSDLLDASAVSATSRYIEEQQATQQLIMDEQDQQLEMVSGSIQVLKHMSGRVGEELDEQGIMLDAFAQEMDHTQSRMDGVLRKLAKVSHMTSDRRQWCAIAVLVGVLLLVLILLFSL
UniProt O60220: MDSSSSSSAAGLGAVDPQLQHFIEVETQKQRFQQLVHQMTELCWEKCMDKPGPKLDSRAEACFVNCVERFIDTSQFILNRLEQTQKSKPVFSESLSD
UniProt O75177, whole entry: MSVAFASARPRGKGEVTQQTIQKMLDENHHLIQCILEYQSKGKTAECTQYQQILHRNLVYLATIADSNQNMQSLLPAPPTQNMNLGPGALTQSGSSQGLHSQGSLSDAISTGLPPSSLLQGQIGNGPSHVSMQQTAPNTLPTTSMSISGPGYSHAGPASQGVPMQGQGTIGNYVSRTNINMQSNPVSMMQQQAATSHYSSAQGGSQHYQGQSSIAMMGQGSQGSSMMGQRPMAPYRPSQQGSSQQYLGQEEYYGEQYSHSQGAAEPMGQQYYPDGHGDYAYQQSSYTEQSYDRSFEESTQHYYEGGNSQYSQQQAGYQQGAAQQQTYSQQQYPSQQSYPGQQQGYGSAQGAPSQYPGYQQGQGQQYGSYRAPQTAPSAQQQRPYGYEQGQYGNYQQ
UniProt O60502: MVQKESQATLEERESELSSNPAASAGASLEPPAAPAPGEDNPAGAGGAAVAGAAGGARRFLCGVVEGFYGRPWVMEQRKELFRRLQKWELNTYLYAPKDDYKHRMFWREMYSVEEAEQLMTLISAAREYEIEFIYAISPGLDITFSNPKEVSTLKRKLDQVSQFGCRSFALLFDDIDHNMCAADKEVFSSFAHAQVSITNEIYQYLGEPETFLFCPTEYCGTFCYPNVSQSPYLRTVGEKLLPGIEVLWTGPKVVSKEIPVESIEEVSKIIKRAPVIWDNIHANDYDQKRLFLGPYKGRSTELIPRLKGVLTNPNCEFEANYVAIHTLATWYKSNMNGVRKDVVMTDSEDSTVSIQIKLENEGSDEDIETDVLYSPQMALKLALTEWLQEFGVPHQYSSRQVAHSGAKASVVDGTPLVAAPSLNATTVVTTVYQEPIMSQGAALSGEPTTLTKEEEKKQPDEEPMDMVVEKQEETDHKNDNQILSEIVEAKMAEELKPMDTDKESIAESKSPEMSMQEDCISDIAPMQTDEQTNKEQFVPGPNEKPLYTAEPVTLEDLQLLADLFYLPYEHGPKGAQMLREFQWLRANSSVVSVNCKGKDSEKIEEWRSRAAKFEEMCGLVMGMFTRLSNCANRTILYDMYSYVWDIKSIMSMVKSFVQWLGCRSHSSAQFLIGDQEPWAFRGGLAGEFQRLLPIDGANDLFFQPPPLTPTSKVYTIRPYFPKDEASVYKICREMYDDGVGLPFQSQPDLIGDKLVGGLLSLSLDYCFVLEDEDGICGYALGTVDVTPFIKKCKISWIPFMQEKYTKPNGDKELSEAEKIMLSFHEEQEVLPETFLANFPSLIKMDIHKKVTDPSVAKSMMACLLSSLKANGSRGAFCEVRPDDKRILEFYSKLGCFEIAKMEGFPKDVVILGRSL
UniProt O75340: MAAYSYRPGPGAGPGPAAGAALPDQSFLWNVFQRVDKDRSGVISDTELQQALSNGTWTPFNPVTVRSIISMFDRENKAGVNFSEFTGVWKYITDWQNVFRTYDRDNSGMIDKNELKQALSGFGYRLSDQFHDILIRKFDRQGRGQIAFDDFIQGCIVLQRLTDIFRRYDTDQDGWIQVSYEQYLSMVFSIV
UniProt O60890: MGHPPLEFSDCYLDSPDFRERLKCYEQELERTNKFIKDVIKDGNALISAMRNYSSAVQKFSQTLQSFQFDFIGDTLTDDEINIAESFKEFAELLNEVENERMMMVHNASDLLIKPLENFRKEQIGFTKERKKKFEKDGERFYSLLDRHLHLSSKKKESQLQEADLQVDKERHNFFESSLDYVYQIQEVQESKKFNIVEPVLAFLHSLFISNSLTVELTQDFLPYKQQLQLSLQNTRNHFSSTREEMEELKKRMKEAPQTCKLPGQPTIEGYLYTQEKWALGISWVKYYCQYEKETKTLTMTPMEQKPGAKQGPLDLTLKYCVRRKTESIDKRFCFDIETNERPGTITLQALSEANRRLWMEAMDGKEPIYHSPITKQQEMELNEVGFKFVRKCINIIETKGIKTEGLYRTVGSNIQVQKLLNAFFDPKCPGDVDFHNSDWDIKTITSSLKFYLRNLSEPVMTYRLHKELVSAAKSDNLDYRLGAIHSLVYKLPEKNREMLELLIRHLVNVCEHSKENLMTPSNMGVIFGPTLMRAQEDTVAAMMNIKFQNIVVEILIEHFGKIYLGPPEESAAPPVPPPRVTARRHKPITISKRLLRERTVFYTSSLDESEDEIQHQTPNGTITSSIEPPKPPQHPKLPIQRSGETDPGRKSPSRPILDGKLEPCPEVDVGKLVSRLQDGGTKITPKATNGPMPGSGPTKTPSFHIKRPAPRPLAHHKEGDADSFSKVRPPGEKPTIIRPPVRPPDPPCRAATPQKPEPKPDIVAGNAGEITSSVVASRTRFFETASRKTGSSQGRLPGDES
UniProt O43255: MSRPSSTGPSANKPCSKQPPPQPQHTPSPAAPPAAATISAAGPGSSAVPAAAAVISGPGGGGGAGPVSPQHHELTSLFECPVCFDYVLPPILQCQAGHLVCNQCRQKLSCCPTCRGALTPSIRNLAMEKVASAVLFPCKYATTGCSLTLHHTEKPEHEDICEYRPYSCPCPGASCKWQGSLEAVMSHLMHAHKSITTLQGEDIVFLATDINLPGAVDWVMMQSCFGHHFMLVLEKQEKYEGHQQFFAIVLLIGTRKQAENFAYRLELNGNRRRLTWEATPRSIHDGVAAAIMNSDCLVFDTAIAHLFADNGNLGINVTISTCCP
UniProt O75208: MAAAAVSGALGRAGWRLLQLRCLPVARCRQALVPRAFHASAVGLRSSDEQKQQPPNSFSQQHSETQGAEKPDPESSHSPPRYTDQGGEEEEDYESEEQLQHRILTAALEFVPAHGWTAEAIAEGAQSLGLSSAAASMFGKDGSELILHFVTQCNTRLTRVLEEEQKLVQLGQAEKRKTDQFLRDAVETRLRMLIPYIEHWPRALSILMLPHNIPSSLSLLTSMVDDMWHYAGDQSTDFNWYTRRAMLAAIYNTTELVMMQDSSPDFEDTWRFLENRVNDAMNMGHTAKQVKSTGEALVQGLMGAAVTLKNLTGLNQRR
UniProt O43684, whole entry: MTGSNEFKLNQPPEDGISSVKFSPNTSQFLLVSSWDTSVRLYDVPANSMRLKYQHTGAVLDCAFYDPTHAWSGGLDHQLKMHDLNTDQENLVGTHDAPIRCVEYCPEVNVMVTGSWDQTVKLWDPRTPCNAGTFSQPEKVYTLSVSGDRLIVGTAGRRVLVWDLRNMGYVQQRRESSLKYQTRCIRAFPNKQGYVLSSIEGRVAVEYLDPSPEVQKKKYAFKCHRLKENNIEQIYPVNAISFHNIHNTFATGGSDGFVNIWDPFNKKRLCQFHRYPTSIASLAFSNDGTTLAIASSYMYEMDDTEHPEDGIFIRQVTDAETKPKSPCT
UniProt O43314: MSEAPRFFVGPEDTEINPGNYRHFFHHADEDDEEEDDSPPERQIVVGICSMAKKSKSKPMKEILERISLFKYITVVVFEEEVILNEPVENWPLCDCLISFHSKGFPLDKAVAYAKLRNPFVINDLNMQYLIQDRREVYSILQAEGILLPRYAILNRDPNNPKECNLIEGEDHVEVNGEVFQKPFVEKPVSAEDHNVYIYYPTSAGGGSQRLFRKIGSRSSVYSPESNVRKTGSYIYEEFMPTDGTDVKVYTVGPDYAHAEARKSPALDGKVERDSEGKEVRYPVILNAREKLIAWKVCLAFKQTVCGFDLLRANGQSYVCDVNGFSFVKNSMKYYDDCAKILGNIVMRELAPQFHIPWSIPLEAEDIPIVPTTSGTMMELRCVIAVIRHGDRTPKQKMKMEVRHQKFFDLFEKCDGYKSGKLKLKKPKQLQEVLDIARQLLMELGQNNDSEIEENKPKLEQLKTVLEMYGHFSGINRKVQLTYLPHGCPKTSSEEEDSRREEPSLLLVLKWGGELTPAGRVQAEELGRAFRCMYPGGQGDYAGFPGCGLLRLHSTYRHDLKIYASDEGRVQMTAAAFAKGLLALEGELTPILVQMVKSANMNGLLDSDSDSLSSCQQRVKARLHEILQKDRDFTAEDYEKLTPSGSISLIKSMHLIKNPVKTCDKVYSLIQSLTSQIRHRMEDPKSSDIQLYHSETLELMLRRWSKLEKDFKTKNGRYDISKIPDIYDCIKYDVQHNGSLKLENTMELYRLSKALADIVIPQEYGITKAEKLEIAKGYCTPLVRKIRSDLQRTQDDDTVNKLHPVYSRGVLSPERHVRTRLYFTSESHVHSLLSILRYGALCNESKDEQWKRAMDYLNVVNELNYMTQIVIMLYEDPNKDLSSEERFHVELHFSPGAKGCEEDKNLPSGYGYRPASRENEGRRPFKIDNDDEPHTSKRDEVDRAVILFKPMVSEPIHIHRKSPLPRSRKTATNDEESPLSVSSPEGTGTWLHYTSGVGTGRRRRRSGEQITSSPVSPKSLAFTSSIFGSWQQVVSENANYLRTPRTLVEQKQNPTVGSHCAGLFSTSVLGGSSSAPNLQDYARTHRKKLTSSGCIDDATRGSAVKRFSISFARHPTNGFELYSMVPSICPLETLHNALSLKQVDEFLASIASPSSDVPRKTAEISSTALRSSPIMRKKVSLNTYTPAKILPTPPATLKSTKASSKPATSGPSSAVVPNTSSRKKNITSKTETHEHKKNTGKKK
UniProt O43824: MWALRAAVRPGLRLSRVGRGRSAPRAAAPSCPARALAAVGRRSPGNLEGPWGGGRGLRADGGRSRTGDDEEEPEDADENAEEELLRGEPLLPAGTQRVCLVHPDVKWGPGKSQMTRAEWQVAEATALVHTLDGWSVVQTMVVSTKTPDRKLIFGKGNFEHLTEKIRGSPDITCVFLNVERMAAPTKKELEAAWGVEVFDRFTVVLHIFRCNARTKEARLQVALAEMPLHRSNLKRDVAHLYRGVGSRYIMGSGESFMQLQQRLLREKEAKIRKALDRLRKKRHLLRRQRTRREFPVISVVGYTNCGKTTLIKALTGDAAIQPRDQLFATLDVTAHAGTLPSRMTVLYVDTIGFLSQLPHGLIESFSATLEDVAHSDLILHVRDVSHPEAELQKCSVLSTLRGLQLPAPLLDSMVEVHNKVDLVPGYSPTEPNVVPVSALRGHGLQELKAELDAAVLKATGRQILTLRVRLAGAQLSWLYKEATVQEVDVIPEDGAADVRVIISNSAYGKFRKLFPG
UniProt O43583: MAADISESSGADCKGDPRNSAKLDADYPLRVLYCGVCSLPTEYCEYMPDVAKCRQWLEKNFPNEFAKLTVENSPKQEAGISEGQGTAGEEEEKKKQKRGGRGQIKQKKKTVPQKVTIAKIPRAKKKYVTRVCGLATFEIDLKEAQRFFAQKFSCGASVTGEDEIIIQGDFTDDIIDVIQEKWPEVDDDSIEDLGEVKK
UniProt O43399: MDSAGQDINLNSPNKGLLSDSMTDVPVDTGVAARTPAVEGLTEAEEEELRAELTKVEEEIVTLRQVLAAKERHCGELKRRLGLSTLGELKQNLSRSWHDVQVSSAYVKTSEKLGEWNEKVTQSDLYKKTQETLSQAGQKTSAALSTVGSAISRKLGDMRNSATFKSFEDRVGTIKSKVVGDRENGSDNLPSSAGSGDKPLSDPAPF
UniProt O43930: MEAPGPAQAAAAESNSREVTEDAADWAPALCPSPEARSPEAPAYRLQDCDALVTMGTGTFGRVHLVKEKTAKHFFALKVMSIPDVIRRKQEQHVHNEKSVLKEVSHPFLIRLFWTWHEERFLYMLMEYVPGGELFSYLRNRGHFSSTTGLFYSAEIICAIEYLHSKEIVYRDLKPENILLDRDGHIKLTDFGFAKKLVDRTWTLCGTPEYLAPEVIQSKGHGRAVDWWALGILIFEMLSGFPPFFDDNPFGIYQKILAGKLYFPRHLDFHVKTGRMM

Some of the results follow. Most values lie at the level of the controls, where differences are scatter.

Compound in this assay: CN[C@@H]1C[C@H]2O[C@@](C)([C@@H]1OC)n1c3ccccc3c3c4c(c5c6ccccc6n2c5c31)C(=O)NC4 [staurosporine]
As to the kind of experiment: log2 fold change of tryptic peptide abundance, ligand vs vehicle (limited proteolysis) (log2 ratio); higher = more trypsin-susceptible (destabilized). The note with it: ligand concentration: 20 uM; sample: K562 cleared lysate; digestion: 4 min, 22 C (HT-PELSA RT4min, Orbitrap Astral).
With “EPB41L2 (peptide sequence: EEKPSVSK, peptide start residue: 145) (UniProt O43491)”, the log2 fold change came to 0.339.
Under “ZFC3H1 (peptide sequence: MPSSSLSESSPR, peptide start residue: 119) (UniProt O60293)” stands 0.346; under “DKC1 (peptide sequence: ALETLTGALFQRPPLIAAVKR, peptide start residue: 172) (UniProt O60832)”, -0.176; under “STX10 (peptide sequence: EILAGKPAAQK, peptide start residue: 121) (UniProt O60499)”, 0.114.
To “TIMM8A (peptide sequence: SKPVFSESLSD, peptide start residue: 87) (UniProt O60220)” belongs -0.016; to “SS18L1 (peptide sequence: TAECTQYQQILHR, peptide start residue: 44) (UniProt O75177)”, -0.495; to “UniProt O60502 (peptide sequence: YTKPNGDKELSEAEK, peptide start residue: 805)”, 0.194.
Under “PHLPP1 (peptide sequence: MEPAAAATVQR, peptide start residue: 1) (UniProt O60346)” stands 0.416; under “XYLB (peptide sequence: IHAEGLGYR, peptide start residue: 421) (UniProt O75191)”, -0.559.
Take “PDCD6 (peptide sequence: SIISMFDRENK, peptide start residue: 67) (UniProt O75340)”: the log2 fold change is 0.149.
For “DNAJC6 (peptide sequence: DNLKDTLK, peptide start residue: 39) (UniProt O75061)”, the log2 fold change is -0.407.
To “PLOD3 (peptide sequence: GIFLHLSNQHEFGR, peptide start residue: 501) (UniProt O60568)” belongs -0.21; to “ABCC5 (peptide sequence: ISDIGLADLR, peptide start residue: 1258) (UniProt O15440)”, -0.0872; to “OPHN1 (peptide sequence: QQLQLSLQNTR, peptide start residue: 226) (UniProt O60890)”, 0.588.
Regarding “SIAH2 (peptide sequence: LSCCPTCR, peptide start residue: 108) (UniProt O43255)”, the log2 fold change is -0.605.
“MAGEC1 (peptide sequence: AGREHFAFGEPR, peptide start residue: 1030) (UniProt O60732)”: the log2 fold change was found to be 0.358.
Under “PJA2 (peptide sequence: AVWPKPAGGYQTITGR, peptide start residue: 19) (UniProt O43164)” stands 0.369; under “COQ9 (peptide sequence: NLTGLNQR, peptide start residue: 310) (UniProt O75208)”, 0.043.
To “UniProt O43432 (peptide sequence: MSQGFHPERDPSDLKK, peptide start residue: 548)” belongs 0.805; to “OPA1 (peptide sequence: ETIFSISK, peptide start residue: 416) (UniProt O60313)”, -0.185.
Under “TBL1X (peptide sequence: AHSVNNHAKPMEIDGEVEIPSSK, peptide start residue: 202) (UniProt O60907)” stands -0.663; under “BUB3 (peptide sequence: VLVWDLR, peptide start residue: 159) (UniProt O43684)”, -0.268.
With “UniProt O43314 (peptide sequence: VYTVGPDYAHAEAR, peptide start residue: 249)”, the log2 fold change amounted to 0.229.
For the target “GTPBP6 (peptide sequence: FTVVLHIFR, peptide start residue: 201) (UniProt O43824)”, the log2 fold change came out at 0.467.
Consider “DENR (peptide sequence: VCGLATFEIDLKEAQR, peptide start residue: 131) (UniProt O43583)”, for which the log2 fold change is -0.637.
Under “TPD52L2 (peptide sequence: AELTKVEEEIVTLR, peptide start residue: 51) (UniProt O43399)” stands 1.24; under “H2AFY (peptide sequence: AGVIFPVGR, peptide start residue: 19) (UniProt O75367)”, 0.274; under “UniProt O43930 (peptide sequence: VMSIPDVIR, peptide start residue: 79)”, -0.606.
